Reference: PMC4357442
No constants are given. Whether binding was seen depends on the method and setting. In cells and extracts the contact can be indirect. Some binding calls cover weakened binding; strength is not graded here. Where a sequence is shown, tags or fusion partners need not be part of it.

T1: Mms21-6HA (S. cerevisiae (budding yeast)) (UniProt P38632)
T1 sequence: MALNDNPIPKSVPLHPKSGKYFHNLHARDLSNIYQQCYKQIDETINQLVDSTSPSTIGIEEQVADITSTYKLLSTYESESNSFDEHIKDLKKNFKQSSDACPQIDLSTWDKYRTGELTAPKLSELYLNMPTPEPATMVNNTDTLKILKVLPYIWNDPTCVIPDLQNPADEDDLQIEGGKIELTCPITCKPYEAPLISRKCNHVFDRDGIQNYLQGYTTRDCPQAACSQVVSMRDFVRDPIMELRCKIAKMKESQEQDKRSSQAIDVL

T2: Nse4-6HA (S. cerevisiae (budding yeast)) (UniProt P43124)
T2 sequence: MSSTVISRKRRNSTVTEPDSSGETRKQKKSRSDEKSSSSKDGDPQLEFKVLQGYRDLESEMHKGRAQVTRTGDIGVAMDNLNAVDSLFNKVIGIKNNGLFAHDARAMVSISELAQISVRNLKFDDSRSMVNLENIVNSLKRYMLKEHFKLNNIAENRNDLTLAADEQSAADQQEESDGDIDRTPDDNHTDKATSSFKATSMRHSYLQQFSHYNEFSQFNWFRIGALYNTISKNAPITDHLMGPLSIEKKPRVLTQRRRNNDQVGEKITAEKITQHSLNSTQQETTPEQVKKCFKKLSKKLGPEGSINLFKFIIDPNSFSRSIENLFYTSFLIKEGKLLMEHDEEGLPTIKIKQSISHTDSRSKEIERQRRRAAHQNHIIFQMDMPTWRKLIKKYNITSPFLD


How the values were obtained:
[1] = molecular target: T1, Mms21-6HA (S. cerevisiae (budding yeast)); experiment: co-IP; anti-HA immunoprecipitation from MMS21-6HA or NSE4-6HA yeast cells transformed with centromeric plasmids expressing SMC5-9myc alleles; western blot
[2] = molecular target: T2, Nse4-6HA (S. cerevisiae (budding yeast)); experiment: as above

| binding [1] | binding [2] | Binder |
| --- | --- | --- |
| binds | binds | smc5-S2-9myc (protein, UniProt Q08204 1-1093) MTSLIDLGRYVERTHHGEDTEPRSKRVKIAKPDLSSFQPGSIIKIRLQDFVTYTLTEFNLSPSLNMIIGPNGSGKSTFVCAVCLGLAGKPEYIGRSKKVEDFIKNGQDVSKIEITLKNSPNVTDIEYIDARDETIKITRIITRSKRRSDYLINDYQVSESVVKTLVAQLNIQLDNLCQFLSQERVEEFARLKSVKLLVETIRSIDASLLDVLDELRELQGNEQSLQKDLDFKKAKIVHLRQESDKLRKSVESLRDFQNKKGEIELHSQLLPYVKVKDHKEKLNIYKEEYERAKANLRAILKDKKPFANTKKTLENQVEELTEKCSLKTDEFLKAKEKINEIFEKLNTIRDEVIKKKNQNEYYRGRTKKLQATIISTKEDFLRSQEILAQTHLPEKSVFEDIDIKRKEIINKEGEIRDLISEIDAKANAINHEMRSIQRQAESKTKSLTTTDKIGILNQDQDLKEVRDAVLMVREHPEMKDKILEPPIMTVSAINAQFAAYLAQCVDYNTSKALTVVDSDSYKLFANPILDKFKVNLRELSSADTTPPVPAETVRDLGFEGYLSDFITGDKRVMKMLCQTSKIHTIPVSRRELTPAQIKKLITPRPNGKILFKRIIHGNRLVDIKQSAYGSKQVFPTDVSIKQTNFYQGSIMSNEQKIRIENEIINLKNEYNDRKSTLDALSNQKSGYRHELSELASKNDDINREAHQLNEIRKKYTMRKSTIETLREKLDQLKREARKDVSQKIKDIDDQIQQLLLKQRHLLSKMASSAKSLANCQKELISTQILQFEAQNMDVSMNDVIGFFNEREADLKSQYEDKKKFVKEMRDTPEFQSWMREIRSYDQDTKEKLNKVAEKYEEEGNFNLSFVQDVLDKLESEIAMVNHDESAVTILDQVTAELRELEHTVPQQSKDLETIKAKLKEDHAVLEPKLDDIVSKISARFARLFNNVGSAGAVRLEKPKDYAEWKIEIMVKFRDNAPLKKLDSHTQSGGERAVSTVLYMIALQEFTSAPFRVVDEINQGMDSRNERIVHKAMVENACAENTSQYFLITPKLLTGLHYHEKMRIHCVMAGSWIPNPSEDPKMIHFGETSNYSFD |
| – | binds | smc5-S3-9myc (protein, UniProt Q08204 1-1093) MTSLIDLGRYVERTHHGEDTEPRSKRVKIAKPDLSSFQPGSIIKIRLQDFVTYTLTEFNLSPSLNMIIGPNGSGKSTFVCAVCLGLAGKPEYIGRSKKVEDFIKNGQDVSKIEITLKNSPNVTDIEYIDARDETIKITRIITRSKRRSDYLINDYQVSESVVKTLVAQLNIQLDNLCQFLSQERVEEFARLKSVKLLVETIRSIDASLLDVLDELRELQGNEQSLQKDLDFKKAKIVHLRQESDKLRKSVESLRDFQNKKGEIELHSQLLPYVKVKDHKEKLNIYKEEYERAKANLRAILKDKKPFANTKKTLENQVEELTEKCSLKTDEFLKAKEKINEIFEKLNTIRDEVIKKKNQNEYYRGRTKKLQATIISTKEDFLRSQEILAQTHLPEKSVFEDIDIKRKEIINKEGEIRDLISEIDAKANAINHEMRSIQRQAESKTKSLTTTDKIGILNQDQDLKEVRDAVLMVREHPEMKDKILEPPIMTVSAINAQFAAYLAQCVDYNTSKALTVVDSDSYKLFANPILDKFKVNLRELSSADTTPPVPAETVRDLGFEGYLSDFITGDKRVMKMLCQTSKIHTIPVSRRELTPAQIKKLITPRPNGKILFKRIIHGNRLVDIKQSAYGSKQVFPTDVSIKQTNFYQGSIMSNEQKIRIENEIINLKNEYNDRKSTLDALSNQKSGYRHELSELASKNDDINREAHQLNEIRKKYTMRKSTIETLREKLDQLKREARKDVSQKIKDIDDQIAQLALKQRHLASKMASSMKSLKNCQKELISTQILQFEAQNMDVSMNDVIGFFNEREADLKSQYEDKKKFVKEMRDTPEFQSWMREIRSYDQDTKEKLNKVAEKYEEEGNFNLSFVQDVLDKLESEIAMVNHDESAVTILDQVTAELRELEHTVPQQSKDLETIKAKLKEDHAVLEPKLDDIVSKISARFARLFNNVGSAGAVRLEKPKDYAEWKIEIMVKFRDNAPLKKLDSHTQSGGERAVSTVLYMIALQEFTSAPFRVVDEINQGMDSRNERIVHKAMVENACAENTSQYFLITPKLLTGLHYHEKMRIHCVMAGSWIPNPSEDPKMIHFGETSNYSFD |
